Results published in the supplement of paper PMC10849652.
The list shows a part of the results.

The chains behind the UniProt entries cited, without tags or fusion partners. Where a name states a change or a piece, a line headed by the entry shows the natural chain unless it says otherwise.
UniProt Q8NEJ9: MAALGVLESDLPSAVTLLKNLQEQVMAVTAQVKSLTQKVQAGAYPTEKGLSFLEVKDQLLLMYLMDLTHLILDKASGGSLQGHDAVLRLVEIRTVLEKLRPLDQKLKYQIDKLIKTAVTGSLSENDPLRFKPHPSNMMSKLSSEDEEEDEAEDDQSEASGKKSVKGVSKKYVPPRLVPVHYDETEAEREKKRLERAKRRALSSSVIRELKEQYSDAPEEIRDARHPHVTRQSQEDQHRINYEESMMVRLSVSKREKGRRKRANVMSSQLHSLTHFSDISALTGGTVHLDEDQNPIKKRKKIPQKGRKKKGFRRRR
UniProt Q86SG6: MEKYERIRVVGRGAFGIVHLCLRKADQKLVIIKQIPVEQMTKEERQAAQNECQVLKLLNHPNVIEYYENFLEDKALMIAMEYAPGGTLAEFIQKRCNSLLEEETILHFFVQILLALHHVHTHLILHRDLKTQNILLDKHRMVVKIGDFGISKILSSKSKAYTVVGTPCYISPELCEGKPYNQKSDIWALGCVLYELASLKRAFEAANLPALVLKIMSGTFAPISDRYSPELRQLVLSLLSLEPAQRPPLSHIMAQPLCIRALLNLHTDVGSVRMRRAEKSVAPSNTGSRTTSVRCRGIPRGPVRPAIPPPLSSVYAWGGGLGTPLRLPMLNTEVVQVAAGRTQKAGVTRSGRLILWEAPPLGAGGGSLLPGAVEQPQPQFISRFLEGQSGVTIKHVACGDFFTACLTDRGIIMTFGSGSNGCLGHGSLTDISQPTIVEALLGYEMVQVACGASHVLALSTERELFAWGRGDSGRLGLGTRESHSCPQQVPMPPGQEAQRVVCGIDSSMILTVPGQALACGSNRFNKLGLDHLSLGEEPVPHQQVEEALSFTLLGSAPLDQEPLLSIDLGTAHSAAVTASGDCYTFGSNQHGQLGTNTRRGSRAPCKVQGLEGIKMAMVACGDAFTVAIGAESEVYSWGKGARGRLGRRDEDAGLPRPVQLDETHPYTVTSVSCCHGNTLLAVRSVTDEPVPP
UniProt Q9UBE8: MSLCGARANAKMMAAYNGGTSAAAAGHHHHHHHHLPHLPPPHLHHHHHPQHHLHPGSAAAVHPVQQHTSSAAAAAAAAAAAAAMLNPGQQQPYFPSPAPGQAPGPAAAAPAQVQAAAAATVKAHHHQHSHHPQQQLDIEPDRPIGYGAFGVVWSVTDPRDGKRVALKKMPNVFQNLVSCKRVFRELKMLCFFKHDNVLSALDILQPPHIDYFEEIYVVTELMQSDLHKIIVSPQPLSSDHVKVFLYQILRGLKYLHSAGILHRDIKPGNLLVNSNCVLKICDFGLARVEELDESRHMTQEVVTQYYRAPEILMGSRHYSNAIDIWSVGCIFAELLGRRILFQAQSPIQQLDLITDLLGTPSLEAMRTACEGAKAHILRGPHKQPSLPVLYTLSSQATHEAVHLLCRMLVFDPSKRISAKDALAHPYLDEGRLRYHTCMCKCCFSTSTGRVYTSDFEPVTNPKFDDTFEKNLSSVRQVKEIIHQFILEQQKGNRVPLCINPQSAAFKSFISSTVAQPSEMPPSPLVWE
UniProt Q7RTP0: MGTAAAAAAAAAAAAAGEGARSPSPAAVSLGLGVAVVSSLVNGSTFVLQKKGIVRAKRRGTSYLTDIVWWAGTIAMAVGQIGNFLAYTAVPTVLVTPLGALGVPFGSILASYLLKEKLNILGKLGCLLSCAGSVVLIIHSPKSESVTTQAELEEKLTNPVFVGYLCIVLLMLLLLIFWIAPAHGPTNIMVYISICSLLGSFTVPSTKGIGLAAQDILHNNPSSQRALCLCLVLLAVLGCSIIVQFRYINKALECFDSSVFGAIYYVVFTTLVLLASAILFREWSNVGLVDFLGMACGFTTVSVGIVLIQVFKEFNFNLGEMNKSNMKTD
UniProt O95167, whole entry, looked up: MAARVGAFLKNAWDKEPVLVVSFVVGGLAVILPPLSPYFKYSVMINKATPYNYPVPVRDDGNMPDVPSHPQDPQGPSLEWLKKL
UniProt Q9NV92: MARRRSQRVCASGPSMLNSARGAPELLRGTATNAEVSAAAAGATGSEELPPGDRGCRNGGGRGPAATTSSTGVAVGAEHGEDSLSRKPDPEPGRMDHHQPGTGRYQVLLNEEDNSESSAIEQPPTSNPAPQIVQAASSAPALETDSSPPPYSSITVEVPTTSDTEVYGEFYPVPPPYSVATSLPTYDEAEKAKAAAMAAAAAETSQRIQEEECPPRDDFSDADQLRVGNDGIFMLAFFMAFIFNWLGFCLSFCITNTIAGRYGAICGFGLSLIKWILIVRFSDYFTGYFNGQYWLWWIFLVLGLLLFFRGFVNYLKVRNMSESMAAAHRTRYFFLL
UniProt O14524: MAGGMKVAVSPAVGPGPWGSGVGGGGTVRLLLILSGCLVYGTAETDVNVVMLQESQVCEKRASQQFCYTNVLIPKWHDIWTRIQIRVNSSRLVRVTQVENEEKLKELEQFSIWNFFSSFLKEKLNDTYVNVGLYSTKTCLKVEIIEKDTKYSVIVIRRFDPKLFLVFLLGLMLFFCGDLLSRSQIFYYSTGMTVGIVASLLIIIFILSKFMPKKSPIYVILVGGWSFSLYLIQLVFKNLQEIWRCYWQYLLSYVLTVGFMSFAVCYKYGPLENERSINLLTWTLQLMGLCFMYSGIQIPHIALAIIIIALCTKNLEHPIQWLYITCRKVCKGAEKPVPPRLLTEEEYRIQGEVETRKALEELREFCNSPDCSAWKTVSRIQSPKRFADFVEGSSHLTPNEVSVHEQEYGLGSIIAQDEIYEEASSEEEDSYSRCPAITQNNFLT
UniProt O15226: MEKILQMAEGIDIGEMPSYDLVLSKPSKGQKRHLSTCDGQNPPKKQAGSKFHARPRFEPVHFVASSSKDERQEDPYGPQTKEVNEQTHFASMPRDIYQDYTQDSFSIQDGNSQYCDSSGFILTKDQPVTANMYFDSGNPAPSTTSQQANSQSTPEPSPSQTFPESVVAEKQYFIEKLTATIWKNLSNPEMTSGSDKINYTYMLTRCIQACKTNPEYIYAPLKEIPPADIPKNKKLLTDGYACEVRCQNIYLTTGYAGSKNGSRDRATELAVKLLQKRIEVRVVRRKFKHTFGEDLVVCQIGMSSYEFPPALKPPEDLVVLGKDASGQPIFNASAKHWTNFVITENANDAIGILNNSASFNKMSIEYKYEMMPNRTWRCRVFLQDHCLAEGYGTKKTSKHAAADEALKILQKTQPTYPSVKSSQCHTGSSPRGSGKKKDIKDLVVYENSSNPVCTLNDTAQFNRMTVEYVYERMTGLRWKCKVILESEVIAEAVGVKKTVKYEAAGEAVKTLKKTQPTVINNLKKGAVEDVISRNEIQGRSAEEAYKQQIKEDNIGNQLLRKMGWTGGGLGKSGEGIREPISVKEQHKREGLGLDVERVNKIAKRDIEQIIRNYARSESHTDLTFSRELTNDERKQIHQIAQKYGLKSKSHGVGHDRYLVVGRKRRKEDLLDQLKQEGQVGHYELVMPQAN
UniProt Q92692, whole entry, looked up: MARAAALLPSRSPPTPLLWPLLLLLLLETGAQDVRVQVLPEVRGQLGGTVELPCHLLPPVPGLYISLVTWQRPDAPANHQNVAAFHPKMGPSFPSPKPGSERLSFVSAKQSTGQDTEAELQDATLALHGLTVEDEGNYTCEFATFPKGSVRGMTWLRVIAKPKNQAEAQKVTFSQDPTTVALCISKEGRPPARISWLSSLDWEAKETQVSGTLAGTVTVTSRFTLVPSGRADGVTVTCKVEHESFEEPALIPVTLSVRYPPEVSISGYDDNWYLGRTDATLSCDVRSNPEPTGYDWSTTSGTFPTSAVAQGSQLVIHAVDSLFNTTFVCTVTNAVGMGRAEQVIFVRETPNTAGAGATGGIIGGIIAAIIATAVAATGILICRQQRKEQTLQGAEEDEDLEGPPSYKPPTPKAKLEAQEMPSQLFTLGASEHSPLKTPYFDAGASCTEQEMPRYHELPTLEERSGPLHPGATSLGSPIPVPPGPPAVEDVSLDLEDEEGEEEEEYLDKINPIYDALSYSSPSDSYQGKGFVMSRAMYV
UniProt Q9NYS0: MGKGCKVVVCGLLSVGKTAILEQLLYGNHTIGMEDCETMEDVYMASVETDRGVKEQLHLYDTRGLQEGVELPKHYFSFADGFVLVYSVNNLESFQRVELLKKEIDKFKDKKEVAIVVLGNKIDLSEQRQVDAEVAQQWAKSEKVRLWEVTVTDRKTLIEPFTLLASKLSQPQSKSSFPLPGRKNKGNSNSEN
UniProt O95096: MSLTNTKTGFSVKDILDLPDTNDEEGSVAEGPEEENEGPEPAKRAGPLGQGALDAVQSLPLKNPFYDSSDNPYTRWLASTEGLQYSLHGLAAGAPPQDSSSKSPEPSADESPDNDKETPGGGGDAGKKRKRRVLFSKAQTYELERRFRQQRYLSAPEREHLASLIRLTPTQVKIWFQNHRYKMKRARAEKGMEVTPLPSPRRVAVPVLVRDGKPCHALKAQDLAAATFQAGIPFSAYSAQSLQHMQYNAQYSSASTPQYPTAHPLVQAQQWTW
UniProt Q9UQ49: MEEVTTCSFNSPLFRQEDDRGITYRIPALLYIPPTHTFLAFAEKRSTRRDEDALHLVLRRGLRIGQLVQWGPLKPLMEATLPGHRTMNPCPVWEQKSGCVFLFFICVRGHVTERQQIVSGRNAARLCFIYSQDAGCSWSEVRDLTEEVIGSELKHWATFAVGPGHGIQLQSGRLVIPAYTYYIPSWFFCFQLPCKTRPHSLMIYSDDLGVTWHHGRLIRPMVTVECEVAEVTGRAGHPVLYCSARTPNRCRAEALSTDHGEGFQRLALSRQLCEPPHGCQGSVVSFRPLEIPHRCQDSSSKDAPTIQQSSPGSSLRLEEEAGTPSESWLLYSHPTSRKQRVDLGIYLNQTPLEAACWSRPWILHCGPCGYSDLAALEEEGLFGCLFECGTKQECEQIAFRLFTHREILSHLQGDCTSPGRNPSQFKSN
UniProt Q16649: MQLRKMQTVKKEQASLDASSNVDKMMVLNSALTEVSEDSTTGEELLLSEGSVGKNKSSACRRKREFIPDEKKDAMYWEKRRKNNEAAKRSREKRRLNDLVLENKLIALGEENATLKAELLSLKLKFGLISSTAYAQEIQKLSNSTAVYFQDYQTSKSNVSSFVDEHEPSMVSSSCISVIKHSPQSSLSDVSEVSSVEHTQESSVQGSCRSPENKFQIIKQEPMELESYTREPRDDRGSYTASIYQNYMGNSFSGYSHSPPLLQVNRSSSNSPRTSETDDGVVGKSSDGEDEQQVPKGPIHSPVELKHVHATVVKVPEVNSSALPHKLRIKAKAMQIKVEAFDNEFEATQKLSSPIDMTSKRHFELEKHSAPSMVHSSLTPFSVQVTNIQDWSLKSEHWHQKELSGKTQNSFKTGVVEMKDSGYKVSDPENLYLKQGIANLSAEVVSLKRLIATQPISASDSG
UniProt Q86UT6, whole entry, looked up: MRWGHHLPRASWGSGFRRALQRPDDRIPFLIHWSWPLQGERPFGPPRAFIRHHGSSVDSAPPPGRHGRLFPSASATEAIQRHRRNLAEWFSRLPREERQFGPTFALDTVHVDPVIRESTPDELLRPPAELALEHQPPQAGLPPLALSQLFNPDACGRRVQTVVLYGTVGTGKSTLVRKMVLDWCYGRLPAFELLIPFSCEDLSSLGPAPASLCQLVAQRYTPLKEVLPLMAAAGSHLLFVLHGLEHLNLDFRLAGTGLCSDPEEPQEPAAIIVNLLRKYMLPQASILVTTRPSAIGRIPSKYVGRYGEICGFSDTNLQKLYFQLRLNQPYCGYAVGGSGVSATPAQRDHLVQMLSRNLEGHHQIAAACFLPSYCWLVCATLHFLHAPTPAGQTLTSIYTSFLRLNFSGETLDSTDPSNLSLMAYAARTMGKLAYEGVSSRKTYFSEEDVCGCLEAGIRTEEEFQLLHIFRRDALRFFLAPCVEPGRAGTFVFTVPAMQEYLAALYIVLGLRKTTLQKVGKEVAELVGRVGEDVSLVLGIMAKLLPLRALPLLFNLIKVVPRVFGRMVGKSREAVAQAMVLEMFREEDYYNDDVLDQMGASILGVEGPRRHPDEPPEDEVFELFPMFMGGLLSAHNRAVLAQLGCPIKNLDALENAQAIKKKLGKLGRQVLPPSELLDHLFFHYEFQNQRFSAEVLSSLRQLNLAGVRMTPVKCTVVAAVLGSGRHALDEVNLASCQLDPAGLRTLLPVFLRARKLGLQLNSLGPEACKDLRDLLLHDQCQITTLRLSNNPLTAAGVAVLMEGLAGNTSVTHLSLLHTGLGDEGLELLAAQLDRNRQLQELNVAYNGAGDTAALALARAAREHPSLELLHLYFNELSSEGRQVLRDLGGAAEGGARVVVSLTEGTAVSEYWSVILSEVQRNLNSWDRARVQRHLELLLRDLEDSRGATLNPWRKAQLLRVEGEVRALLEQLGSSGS

What was measured:
Experiment in all cases: log2 fold change, soluble protein after heating vs DMSO (PISA); higher = thermal stabilisation; K562 lysate, 10 uM; active = over 0.2 and 3.5 SD of the protein, either way, in both replicates (recomputed)
lapatinib = compound: CS(=O)(=O)CCNCc1ccc(-c2ccc3ncnc(Nc4ccc(OCc5cccc(F)c5)c(Cl)c4)c3c2)o1 [lapatinib]
In short: (§1)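 The values are log-two fold changes in thermal stability compared with solvent controls and come from duplicates. They were obtained by TMTpro 16plex LC-MS/MS, with channel sums equalised, on the supernatant after 21,000xg for 90 min. That supernatant came from crude K562 extract at 1 mg/mL protein treated with 10 μM compound for 30 min, heated for 3 min across 48°C-58°C, pooled and brought to 0.5% NP-40 at 4°C.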

crizotinib = compound: C[C@@H](Oc1cc(-c2cnn(C3CCNCC3)c2)cnc1N)c1c(Cl)ccc(F)c1Cl [crizotinib]
In short: as §1

tozasertib = compound: Cc1cc(Nc2cc(N3CCN(C)CC3)nc(Sc3ccc(NC(=O)C4CC4)cc3)n2)n[nH]1 [tozasertib]
In short: as §1

doramapimod = compound: Cc1ccc(-n2nc(C(C)(C)C)cc2NC(=O)Nc2ccc(OCCN3CCOCC3)c3ccccc23)cc1 [doramapimod]
In short: as §1

nilotinib = compound: Cc1cn(-c2cc(NC(=O)c3ccc(C)c(Nc4nccc(-c5cccnc5)n4)c3)cc(C(F)(F)F)c2)cn1 [nilotinib]
In short: as §1

[1] = compound: Cc1nc(Nc2n[nH]c3c2CN(C(=O)N[C@H](CN(C)C)c2ccccc2)C3(C)C)c2sccc2n1
In short: as §1

[2] = compound: Cc1ncc(-c2ccnc(Nc3ccc(S(C)(=O)=O)cc3)n2)n1C(C)C
In short: as §1

quisinostat = compound: Cn1cc(CNCC2CCN(c3ncc(C(=O)NO)cn3)CC2)c2ccccc21 [quisinostat]
In short: as §1

tipifarnib = compound: Cn1cncc1[C@@](N)(c1ccc(Cl)cc1)c1ccc2c(c1)c(-c1cccc(Cl)c1)cc(=O)n2C [tipifarnib]
In short: as §1

[3] = compound: NC(=O)Nc1cc(-c2cccc(F)c2)sc1C(=O)N[C@H]1CCCNC1
In short: as §1

[4] = compound: NC(=O)c1cnc(N[C@@H]2CCCC[C@@H]2N)nc1Nc1cccc(-n2nccn2)c1
In short: as §1

[5] = compound: NC1(c2ccc(-c3nc4ccn5c(=O)[nH]nc5c4cc3-c3ccccc3)cc2)CCC1
In short: as §1

[6] = compound: C[C@H](C1=CC=C(C=C1)C(=O)NC2=C3C=CNC3=NC=C2)N
In short: as §1

gandotinib = compound: Cc1cc(Nc2cc(CN3CCOCC3)c3nc(C)c(Cc4ccc(Cl)cc4F)n3n2)n[nH]1 [gandotinib]
In short: as §1

[7] = compound: Cc1cccc(CC(=O)N2CCc3c2ccc(-c2cn(C)c4ncnc(N)c24)c3F)n1
In short: as §1

pictilisib = compound: CS(=O)(=O)N1CCN(Cc2cc3nc(-c4cccc5[nH]ncc45)nc(N4CCOCC4)c3s2)CC1 [pictilisib]
In short: as §1

bafetinib = compound: Cc1ccc(NC(=O)c2ccc(CN3CC[C@H](N(C)C)C3)c(C(F)(F)F)c2)cc1Nc1nccc(-c2cncnc2)n1 [bafetinib]
In short: as §1

duvelisib = compound: C[C@H](Nc1ncnc2nc[nH]c12)c1cc2cccc(Cl)c2c(=O)n1-c1ccccc1 [duvelisib]
In short: as §1

dasatinib = compound: Cc1nc(Nc2ncc(C(=O)Nc3c(C)cccc3Cl)s2)cc(N2CCN(CCO)CC2)n1 [dasatinib]
In short: as §1

[8] = compound: Cn1cc(-c2ccc3c(c2)CCN3C(=O)Cc2cccc(C(F)(F)F)c2)c2c(N)ncnc21
In short: as §1

Measured: log2 fold change

NGDN (UniProt Q8NEJ9)
inactive: lapatinib 0.092 | crizotinib 0.046 | tozasertib -0.043 | doramapimod 0.083 | nilotinib -0.434 | [1] -0.006 | [2] -0.306 | quisinostat -0.036 | tipifarnib 0.368 | [3] 0.18 | [4] -0.116 | [5] 0.179

NEK8 (UniProt Q86SG6)
inactive: [6] -0.094 | gandotinib 0.103 | [7] 0.049 | nilotinib 0.079 | [1] -0.081 | [2] 0.185 | tipifarnib 0.139 | [5] -0.049

NLK (UniProt Q9UBE8)
inactive: [6] -0.036 | gandotinib 0.021 | [7] 0.203 | [5] 0.066

NIPA1 (UniProt Q7RTP0)
inactive: lapatinib -0.065 | pictilisib -0.015 | crizotinib -0.241 | [6] 0.04 | gandotinib 0.134 | doramapimod -0.062 | bafetinib 0.025 | [7] -0.064 | nilotinib 0.006 | [1] 0.064 | [2] -0.072 | quisinostat -0.217 | tipifarnib 0.033 | [3] 0.029 | [4] -0.034 | [5] -0.03

NDUFA3 (UniProt O95167)
inactive: pictilisib -0.08 | crizotinib -0.06 | [6] 0.011 | duvelisib -0.006 | gandotinib -0.018 | tozasertib 0.011 | doramapimod 0.016 | bafetinib -0.231 | [7] 0.17 | nilotinib -0.137 | [1] -0.034 | dasatinib -0.051 | [2] 0.063 | [8] 0.038 | quisinostat -0.078 | tipifarnib -0.232 | [3] 0.033 | [5] -0.032

NDFIP2 (UniProt Q9NV92)
inactive: crizotinib -0.073 | [6] 0.043 | gandotinib -0.112 | doramapimod -0.095 | [7] 0.23 | nilotinib -0.069 | [1] 0.148 | [2] -0.057 | quisinostat 0.146 | tipifarnib 0.165 | [3] -0.063

NEMP1 (UniProt O14524)
inactive: pictilisib -0.124 | crizotinib -0.002 | doramapimod 0.09 | bafetinib -0.016 | quisinostat 0.157 | [3] 0.029

NKRF isoform 2 (UniProt O15226)
inactive: lapatinib -0.01 | crizotinib -0.032 | [6] 0.103 | duvelisib 0.012 | gandotinib -0.167 | tozasertib 0.088 | doramapimod -0.097 | [7] 0.032 | nilotinib -0.037 | [1] 0.06 | dasatinib -0.015 | [2] -0.013 | [8] 0.007 | quisinostat -0.012 | tipifarnib 0.01 | [3] 0.043 | [4] -0.05 | [5] -0.091

NHLRC3 (UniProt Q5JS37)
inactive: lapatinib -0.046 | crizotinib 0.023 | [6] 0.01 | duvelisib 0 | gandotinib 0.191 | tozasertib -0.096 | doramapimod 0.039 | [7] 0.139 | nilotinib -0.02 | [1] -0.033 | dasatinib 0.013 | [2] 0 | [8] 0.043 | quisinostat -0.096 | tipifarnib 0.015 | [3] 0.005 | [4] -0.028 | [5] -0.038

NECTIN2 isoform 2 (UniProt Q92692)
inactive: lapatinib -0.109 | crizotinib -0.05 | [6] 0.077 | duvelisib 0.138 | gandotinib 0.015 | tozasertib 0.062 | doramapimod 0.088 | [7] -0.054 | nilotinib -0.09 | [1] -0.048 | dasatinib 0.091 | [2] -0.03 | [8] 0.005 | quisinostat -0.095 | tipifarnib -0.139 | [3] 0.012 | [4] 0.014 | [5] -0.115

NFIX (UniProt Q14938)
inactive: tozasertib 0.092

NKIRAS1 (UniProt Q9NYS0)
inactive: lapatinib -0.175 | [6] 0.15 | duvelisib -0.094 | gandotinib 0.036 | tozasertib -0.023 | [7] -0.205 | nilotinib 0.182 | [1] 0.064 | dasatinib -0.183 | [2] -0.029 | [8] 0.106 | tipifarnib 0.134 | [4] -0.119 | [5] -0.128

NKX2-2 (UniProt O95096)
inactive: lapatinib -0.089 | pictilisib -0.022 | crizotinib -0.328 | [6] -0.357 | gandotinib 0.278 | tozasertib 0.011 | doramapimod 0.037 | bafetinib -0.059 | [7] 0.279 | quisinostat -0.468 | [3] -0.011 | [4] 0.121 | [5] -0.066

NDRG2 isoform 6 (UniProt Q9UN36)
inactive: lapatinib 0.087 | duvelisib 0.016 | tozasertib -0.018 | dasatinib 0.124 | [8] 0.025 | [4] -0.046 | [5] 0.04

NEU4 (UniProt C9JEA3)
inactive: pictilisib -0.018 | crizotinib -0.174 | [6] -0.033 | duvelisib -0.041 | gandotinib 0 | doramapimod 0.083 | bafetinib -0.119 | [7] 0.038 | nilotinib -0.001 | [1] 0.03 | dasatinib -0.055 | [2] -0.001 | [8] 0.016 | quisinostat -0.33 | tipifarnib -0.06 | [3] 0.059 | [5] -0.016

NEU3 isoform 2 (UniProt Q9UQ49)
inactive: lapatinib -0.007 | pictilisib -0.042 | crizotinib -0.016 | duvelisib 0.11 | tozasertib 0.043 | doramapimod 0.034 | bafetinib 0 | nilotinib -0.041 | [1] -0.195 | dasatinib 0.082 | [2] 0.011 | [8] -0.147 | quisinostat 0.017 | tipifarnib -0.034 | [3] 0.032 | [4] 0.003 | [5] 0.123

NFIL3 (UniProt Q16649)
inactive: lapatinib -0.122 | tozasertib 0.322 | nilotinib -0.014 | [1] -0.022 | [2] -0.03 | tipifarnib -0.027 | [4] 0.605

Pulled one by one from above (2):
NDRG2 isoform 6 (UniProt Q9UN36)
inactive: lapatinib 0.087 | duvelisib 0.016 | tozasertib -0.018 | dasatinib 0.124 | [8] 0.025 | [4] -0.046 | [5] 0.04

NEU4 (UniProt C9JEA3)
inactive: pictilisib -0.018 | crizotinib -0.174 | [6] -0.033 | duvelisib -0.041 | gandotinib 0 | doramapimod 0.083 | bafetinib -0.119 | [7] 0.038 | nilotinib -0.001 | [1] 0.03 | dasatinib -0.055 | [2] -0.001 | [8] 0.016 | quisinostat -0.33 | tipifarnib -0.06 | [3] 0.059 | [5] -0.016

More entries

NLRX1 (UniProt Q86UT6)
inactive: [6] -0.152 | gandotinib -0.003 | tozasertib -0.128 | [7] 0.076 | [5] 0.005

NDUFA7 (UniProt M0R0N0)
inactive: pictilisib 0.045 | [6] -0.965 | gandotinib 0.238 | bafetinib -0.181 | [7] 0.495
